Here are results for 54 molecules from the supplement of paper PMC4371806.

Over roughly 1,600 compounds, “plate-normalized OD600 growth (mean of duplicates)” has its median near 0.31; the lowest 2% begin near 0.23. This is one part of the list.

The test system of this assay is Escherichia coli BW25113. The experiment in a line: plate-normalized OD600 growth (mean of duplicates) (OD600 (normalized)); higher = more growth (less inhibition). To be noted: 10 µM. As for the experimental part:
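E. coli BW25113 in LB (100 µl, 96-well, no shaking) was exposed to 10 µM of each compound (here the ChemBridge subset of a ~30,000-member library) and grown at 37°C for 24 h or 15°C for 48 h, in duplicate. Growth was read as OD600 and the duplicate ODs were normalized across screening plates to correct plate-to-plate variation.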

Turning to `CC1=C(CCN2CCN(C)CC2)C(C)(C)CCC1`, the “plate-normalized OD600 growth” value reads like this: (temperature: 15°C, 48 h) 0.237; (temperature: 37°C, 24 h) 0.656.
Consider `Nc1ccc2oc3ccc(N)cc3c(=O)c2c1`, for which the “plate-normalized OD600 growth” value is, setting by setting: (temperature: 15°C, 48 h) 0.246; (temperature: 37°C, 24 h) 0.61.
For `O=C1c2ccc(-c3ccc4c(c3)C(=O)N(CCO)C4=O)cc2C(=O)N1CCO` the same measures were 0.248 and 0.656.
For `COc1ccccc1N1CCN(Cc2cc(Br)c(O)c(OC)c2)CC1` the same measures were 0.271 and 0.627.
Take `O=C(CC1Nc2ccccc2NC1=O)Nc1ccc(Cl)cc1` (stereo not drawn): the “plate-normalized OD600 growth” value runs as follows: (temperature: 15°C, 48 h) 0.215; (temperature: 37°C, 24 h) 0.6.
As for `O=C(Nc1ccc(I)cc1)c1cnccn1`, the “plate-normalized OD600 growth” value (temperature: 15°C, 48 h) was found to be 0.242 and the “plate-normalized OD600 growth” value (temperature: 37°C, 24 h) came to 0.626.
Take `Cn1c2c(c(=O)[nH]c1=O)C(c1ccc(Cl)cc1)C1=C(N2)c2ccccc2C1=O` (stereo not drawn): the “plate-normalized OD600 growth” value runs as follows: (temperature: 15°C, 48 h) 0.254; (temperature: 37°C, 24 h) 0.622.
Consider `Cc1onc(-c2ccccc2)c1C(=O)O`, for which the “plate-normalized OD600 growth” value by setting is: (temperature: 15°C, 48 h) 0.271; (temperature: 37°C, 24 h) 0.628.
As for `COc1ccc(N2C(=O)CC(NCc3ccco3)C2=O)cc1` (stereo not drawn), the “plate-normalized OD600 growth” value came to 0.242 (temperature: 15°C, 48 h) and 0.586 (temperature: 37°C, 24 h).
On to `N#CC1=C(N)Oc2cc(O)ccc2C1c1ccccc1` (stereo not drawn), for which the “plate-normalized OD600 growth” value worked out at 0.256 (temperature: 15°C, 48 h) and 0.607 (temperature: 37°C, 24 h).
For `CCC1CCCCN1C(=O)c1cccc([N+](=O)[O-])c1C` (stereo not drawn) the same measures were 0.247 and 0.612.
Take `CCn1c(C)c(C=O)c2cc([N+](=O)[O-])ccc21`: the “plate-normalized OD600 growth” value was found to be 0.223 (temperature: 15°C, 48 h) and 0.608 (temperature: 37°C, 24 h).
As for `C(=C\c1ccccc1)/CN1CCN(C2CCN(CCc3ccccc3)CC2)CC1`, the “plate-normalized OD600 growth” value is, setting by setting: (temperature: 15°C, 48 h) 0.249; (temperature: 37°C, 24 h) 0.627.
Take `C(CN1CCOCC1)NC1CC2CCC1C2` (stereo not drawn): the “plate-normalized OD600 growth” value was 0.244 (temperature: 15°C, 48 h) and 0.628 (temperature: 37°C, 24 h).
For `COc1ccc(S(=O)(=O)Nc2ccc(C(C)C)cc2)cc1OC` the same measures were 0.242 and 0.606.
`COc1ccc(NS(=O)(=O)c2ccc(NC(=O)c3ccccc3)cc2)nn1`: the “plate-normalized OD600 growth” value amounted to 0.251 (temperature: 15°C, 48 h) and 0.674 (temperature: 37°C, 24 h).
For `CN1CCN(C(=O)NC23CC4CC(CC(C4)C2)C3)CC1`, the “plate-normalized OD600 growth” value runs as follows: (temperature: 15°C, 48 h) 0.283; (temperature: 37°C, 24 h) 0.645.
In the same order, the values of `Cc1cccc(-c2nc(-c3cccnc3)no2)c1` are 0.244 and 0.605.
For `COc1cccc(-c2nc(Cc3ccc(Cl)cc3)no2)c1`, the “plate-normalized OD600 growth” value (temperature: 15°C, 48 h) amounted to 0.253 and the “plate-normalized OD600 growth” value (temperature: 37°C, 24 h) was determined as 0.601.
Turning to `CCC(Cc1ccccc1)NC(=O)c1ccc(OC)c(OC)c1` (stereo not drawn), the “plate-normalized OD600 growth” value by setting is: (temperature: 15°C, 48 h) 0.252; (temperature: 37°C, 24 h) 0.62.
`COc1ccc(NC(=O)c2ccc(OC)cc2)cc1`: the “plate-normalized OD600 growth” value reads like this: (temperature: 15°C, 48 h) 0.254; (temperature: 37°C, 24 h) 0.636.
On to `C=CCOc1ccccc1CN1CCCN(C)CC1`, for which the “plate-normalized OD600 growth” value is, setting by setting: (temperature: 15°C, 48 h) 0.217; (temperature: 37°C, 24 h) 0.595.
For the molecule `COc1ccc(NC(=O)[C@@H]2C3C=CC(C3)[C@@H]2C(=O)O)cc1` (stereo partly drawn), the “plate-normalized OD600 growth” value is 0.243 (temperature: 15°C, 48 h) and 0.634 (temperature: 37°C, 24 h).
Take `O=C(NCC1CCCO1)c1cc(Cl)ccc1Cl` (stereo not drawn): the “plate-normalized OD600 growth” value reads like this: (temperature: 15°C, 48 h) 0.252; (temperature: 37°C, 24 h) 0.609.
For the molecule `COc1ccccc1NS(=O)(=O)c1ccc(C(C)(C)C)cc1`, the “plate-normalized OD600 growth” value (temperature: 15°C, 48 h) worked out at 0.254 and the “plate-normalized OD600 growth” value (temperature: 37°C, 24 h) is 0.618.
Regarding `O=[N+]([O-])c1cccc(S(=O)(=O)/C=C/c2ccccc2)c1`, the “plate-normalized OD600 growth” value (temperature: 15°C, 48 h) amounted to 0.243 and the “plate-normalized OD600 growth” value (temperature: 37°C, 24 h) was found to be 0.625.
In the same order, the values of `N#C/C(=C1/CCCCCN1)c1nnc2n1CCCCC2` are 0.267 and 0.655.
On to `COc1ccccc1/C=C/CN1CCSCC1`, for which the “plate-normalized OD600 growth” value runs as follows: (temperature: 15°C, 48 h) 0.235; (temperature: 37°C, 24 h) 0.61.
With `OC(Cc1ccc2ccccc2n1)C(Cl)(Cl)Cl` (stereo not drawn), the “plate-normalized OD600 growth” value stood at 0.247 (temperature: 15°C, 48 h) and 0.614 (temperature: 37°C, 24 h).
For `COc1cccc(C2C(C#N)=C(N)Oc3nc(C)[nH]c(=O)c32)c1OC` (stereo not drawn) the same measures were 0.269 and 0.635.
On to `CN(C)Cc1c(N)cccc1O`, for which the “plate-normalized OD600 growth” value by setting is: (temperature: 15°C, 48 h) 0.237; (temperature: 37°C, 24 h) 0.611.
Turning to `O=[N+]([O-])c1ccc(CN2CCCC2)s1`, the “plate-normalized OD600 growth” value is, setting by setting: (temperature: 15°C, 48 h) 0.253; (temperature: 37°C, 24 h) 0.605.
Consider `CCCCOc1ccc(N2C(=O)CC(N3CCN(c4ncccn4)CC3)C2=O)cc1` (stereo not drawn), for which the “plate-normalized OD600 growth” value is, setting by setting: (temperature: 15°C, 48 h) 0.25; (temperature: 37°C, 24 h) 0.613.
`CC(=O)c1ccc(N2CCN(CC3CCCCC3)CC2)cc1`: the “plate-normalized OD600 growth” value (temperature: 15°C, 48 h) was found to be 0.248 and the “plate-normalized OD600 growth” value (temperature: 37°C, 24 h) is 0.638.
On to `Cc1c(Cl)cccc1NC(=O)c1cccnc1`, for which the “plate-normalized OD600 growth” value by setting is: (temperature: 15°C, 48 h) 0.265; (temperature: 37°C, 24 h) 0.631.
For `CC1(C)CC(=O)C2=C(C1)Nc1ccccc1NC2c1ccc(Br)cc1` (stereo not drawn) the same measures were 0.275 and 0.627.
As to `COc1cccc(OC)c1C(=O)Nc1cccc(F)c1`, the “plate-normalized OD600 growth” value is, setting by setting: (temperature: 15°C, 48 h) 0.265; (temperature: 37°C, 24 h) 0.625.
With `COc1cc2c(cc1NC(=O)C(Cl)Cl)oc1ccccc12`, the “plate-normalized OD600 growth” value by setting is: (temperature: 15°C, 48 h) 0.232; (temperature: 37°C, 24 h) 0.619.
For the molecule `O=[N+]([O-])c1cc(Cl)ccc1N1CCCNCC1`, the “plate-normalized OD600 growth” value runs as follows: (temperature: 15°C, 48 h) 0.244; (temperature: 37°C, 24 h) 0.592.
Take `CC(=O)N1c2ccccc2CCc2ccc(N)cc21`: the “plate-normalized OD600 growth” value reads like this: (temperature: 15°C, 48 h) 0.25; (temperature: 37°C, 24 h) 0.625.
As to `O=C(Nc1ccccc1[N+](=O)[O-])C1=C(O)CCn2c1nc1ccccc12`, the “plate-normalized OD600 growth” value turned out to be 0.244 (temperature: 15°C, 48 h) and 0.589 (temperature: 37°C, 24 h).
For `O=C(O)CSc1nccn1Cc1ccccc1` the same measures were 0.244 and 0.625.
In the same order, the values of `CN1C(=O)CC(N2CCN(C(c3ccccc3)c3ccccc3)CC2)C1=O` (stereo not drawn) are 0.259 and 0.623.
In the same order, the values of `CN(CCc1ccccn1)Cc1ccc(Cl)c(Cl)c1` are 0.222 and 0.622.
On to `COC(=O)Nc1ccc(S(=O)(=O)N2CCCCC2)cc1`, for which the “plate-normalized OD600 growth” value worked out at 0.238 (temperature: 15°C, 48 h) and 0.599 (temperature: 37°C, 24 h).
Take `COc1cc(C)c(CN2CCc3c([nH]c4ccccc34)C2)cc1C`: the “plate-normalized OD600 growth” value is 0.229 (temperature: 15°C, 48 h) and 0.597 (temperature: 37°C, 24 h).
Regarding `C=CCn1c(N)c(S(=O)(=O)c2ccccc2)c2nc3ccccc3nc21`, the “plate-normalized OD600 growth” value is, setting by setting: (temperature: 15°C, 48 h) 0.248; (temperature: 37°C, 24 h) 0.606.
With `Cc1nc(N)nc(OCC(F)(F)C(F)F)c1Br`, the “plate-normalized OD600 growth” value (temperature: 15°C, 48 h) stood at 0.221 and the “plate-normalized OD600 growth” value (temperature: 37°C, 24 h) was found to be 0.604.
For the molecule `O=c1ccn(Cc2ccccc2)c(=O)[nH]1`, the “plate-normalized OD600 growth” value reads like this: (temperature: 15°C, 48 h) 0.251; (temperature: 37°C, 24 h) 0.609.
For `Cc1cc(F)c(F)cc1C(=O)Nc1cccc(F)c1`, the “plate-normalized OD600 growth” value is, setting by setting: (temperature: 15°C, 48 h) 0.255; (temperature: 37°C, 24 h) 0.642.
In the same order, the values of `Cc1cccc(NS(=O)(=O)c2cccc(C(=O)Nc3ccc([N+](=O)[O-])cc3)c2)c1` are 0.246 and 0.61.
On to `Cc1c(Cc2ccccc2)sc(N)c1C(N)=O`, for which the “plate-normalized OD600 growth” value amounted to 0.258 (temperature: 15°C, 48 h) and 0.626 (temperature: 37°C, 24 h).
Regarding `Cn1c2ccccc2n2c(C=O)c(-c3ccccc3)nc12`, the “plate-normalized OD600 growth” value worked out at 0.256 (temperature: 15°C, 48 h) and 0.624 (temperature: 37°C, 24 h).
As for `O=[N+]([O-])c1ccccc1/C=C/CN1CCN(c2ncccn2)CC1`, the “plate-normalized OD600 growth” value (temperature: 15°C, 48 h) was found to be 0.246 and the “plate-normalized OD600 growth” value (temperature: 37°C, 24 h) was 0.623.
